Values quoted from earlier work in US8691791B2, “Microspheres for treatment of brain tumors” (Biocompatibles UK Limited, priority 2007, dated 2014).
At least one structure is not confirmed: it was looked up by name or label, or the drawing left a doubt.

Test system: glioblastoma
Details: radiotherapy and temozolomide; cited from earlier work

Cn1nnc2c(C(N)=O)ncn2c1=O [temozolomide]
median survival: approximately 14 months
patients who survive past 5 years: Less than 10%
